Results: paper PMC9023578
No constants are given. Whether binding was seen depends on the method and setting.

Amino acid sequences for entries named in this document (tags omitted). Residues count along the entry.
UniProt Q9EP73, residues 19-290: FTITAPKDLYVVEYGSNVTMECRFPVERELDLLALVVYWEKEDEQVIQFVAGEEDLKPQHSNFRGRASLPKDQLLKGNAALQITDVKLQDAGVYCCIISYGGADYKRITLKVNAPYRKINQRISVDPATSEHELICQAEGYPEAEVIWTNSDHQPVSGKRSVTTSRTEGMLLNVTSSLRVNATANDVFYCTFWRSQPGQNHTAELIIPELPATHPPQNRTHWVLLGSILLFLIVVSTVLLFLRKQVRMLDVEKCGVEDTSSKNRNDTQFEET
UniProt P09793, residues 36-161: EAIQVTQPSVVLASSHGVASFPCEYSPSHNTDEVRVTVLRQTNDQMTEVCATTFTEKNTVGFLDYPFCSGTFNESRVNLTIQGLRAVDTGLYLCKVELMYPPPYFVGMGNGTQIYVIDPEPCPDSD

Biological target: PD-L1 on mouse lymphatic endothelial cells (LEC PD-L1) (mouse (endogenous in primary C57BL/6 dermal LECs)) (UniProt Q9EP73)
Assay: flow cytometry on cells; plated mouse LECs incubated with the Ig fusion or control human IgG1 for 1 hour at 37 °C, washed, stained with PE anti-human IgG1 for bound Igs; only the binder purified

Substance: Recombinant mouse CTLA4 Ig (from UniProt P09793 36-161) (Fc fusion)
- binding: no binding
